Our source for the z-score values is PubChem BioAssay AID1347423 (Functional Genomics Laboratory (NCATS/FGL), 2020).

Among all 52,000 sequences or so, about 210 (0.4%) were called active.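 Rule for the calls: active = gene whose silencing raises cell survival under the drug, median off-target-corrected z-score across its silencing RNAs 2 or more; inactive = the rest.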 This is one part of the list.

A short description of this test: Resistance to Poly (ADP-Ribose) Polymerase inhibitor: Gene Identification via Genome-wide siRNA Screen. The note with it: mouse BRCA2 R2336H ES cells, olaparib, CellTiter-Glo viability; stronger effect = higher value. In outline: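 Genome-wide siRNA screen (3 siRNAs/gene, 20 nM) in mouse ES cells carrying hypomorphic BRCA2 R2336H; olaparib 500 nM added 48 h post-transfection, CellTiter-Glo viability 72 h later. Normalized to plate-median negative control; MAD z-scores, gene median, seed-adjusted.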
Take “GGAGAGAGUUUUUGUUUUUTT against 2810012G03Rik”: the z-score is inactive: -0.18. On to GUUUGCCAGAACUCUGAAATT against Lyzs, for which the z-score is inactive: -0.533. The figure for “CCAGGUGUAACAAAAAAGATT against 2810047L02Rik” is inactive: -2.25.

Turning to “GGAGCACCUAACAACUGUUTT against 1300002F13Rik”, the z-score is inactive: 0.0155.

On to CCGCGUGUCUGCUAUCAUCTT against Wdfy1, for which the z-score was inactive: 0.865. Take GGGAUUCACUCUUCUUUAGTT against Og9x: the z-score is inactive: 0.501. The figure for “GCGAUACAAAGCUAAUCCCTT against 3110009E18Rik” is inactive: -0.616; for GCCUAAUAAGGAGAAACCATT against Car9 it is inactive: -0.731. In the case of CGAUUCAUCUGUGUUCGUGTT against Bai1, the z-score is inactive: 1.19. The figure for GGAGUCCAUUUCAUGUUUUTT against Tiparp is inactive: -0.0426. In the case of GGAGAACCUCAAUGACGUGTT against Prtn3, the z-score is inactive: 2.47.

Regarding GCAUCAGAUUAUCUCACUGTT against Mtrf1l, the z-score is inactive: -0.226. The figure for “CCUAUCAAAUUCAGAGGUUTT against 5830482F20Rik” is inactive: -1.88; for “GGGCAUCAAUUUAAGAAGCTT against D430015B01Rik” it is inactive: -0.0149.

Regarding CCAAUCUACUCCUAAGAACTT against V1rg11, the z-score is inactive: -0.209.

For the sequence “CCAUGUCAGUUACAAUGCGTT against A530015O12Rik”, the z-score was inactive: 0.942. In the case of “GGGUCUCCGAAACUACUUATT against 5730537D05Rik” it was inactive: -0.581.

Turning to GGAAAGUGUGCUUCCAAUUTT against Olfr1138, the z-score is inactive: 0.265. In the case of GGAUCACAUCGAGAAAACCTT against Utrn it was inactive: -1.1; in that of GCUAAACGAGAGAAAAAGATT against Arhgef10, inactive: -1.11.

For GGCAUAUCAGACACCUCUUTT against Olfr697, the z-score was inactive: 0.335.

Turning to “CCAAUGGUUUAAGCCUAGCTT against 1300002K09Rik”, the z-score is inactive: 0.279. The figure for “CCCUGACUUAAUAAGAGACTT against B130017P16Rik” is inactive: 1.5. In the case of GGUGGUGGUUGGUAAUGAUTT against Kif4 it was inactive: 0.918; in that of GGCAAAACAACUUUAUUCCTT against Ucp2, inactive: 1.59. Consider GGAGCUCCAUGACAUGUUUTT against Stx3, for which the z-score is inactive: 2.29. In the case of GGGAGAAAAUCCAUUAUAUTT against AV273951, the z-score is inactive: 2.38. In the case of CCCUUUCUUUCAUGAGCCGTT against Dguok it was inactive: -0.485; in that of GGCAGAAAGCAAAAUGUUUTT against Gata3, inactive: 0.838; in that of “GGAACAGUCGGCCAUUUAATT against 6530411B15Rik”, inactive: -1.96.

With GGUACGACAAAGAAAAACCTT against Rnmt, the z-score is inactive: -0.26.

Consider CCCUUAUCCUCACGUCAGATT against Spic, for which the z-score is inactive: -1.15. The figure for CGUCAUCUUAUCAUGUAUUTT against Camk2d is inactive: 1.41; for GGUGUUCAGACUACCCUCUTT against Serpina3m it is inactive: -1.88. The figure for GGUAAUCAAGACCCACAAATT against Shank3 is inactive: 1.36; for CCUUAUCAAAAAGCUCUCATT against Lats2 it is inactive: 0.703.

On to GGGAAGAUGGAAGACUACGTT against Ramp2, for which the z-score is inactive: 0.127.

Regarding GGACCUCAGCGAAGACAAUTT against BC034097, the z-score was active: 2.03. The figure for “GGUCAAAAGAAACAGGUGUTT against 2310047I15Rik” is inactive: 0.438. The figure for “GGGAAGGAACUUGAUUUGUTT against D930040M24Rik” is inactive: -0.651. Turning to GCACCGUGACUCAGAUAGATT against Slco1c1, the z-score was inactive: 2.45.

As to “GCCUCUAUGUUACCACCUCTT against 9030611O19Rik”, the z-score is inactive: 1.63. The figure for GGUAACUGCUUGCUACAGGTT against Npm3 is inactive: -0.0411.

GGACUUACUCCACAGCCUATT against Tbp: the z-score was inactive: 2.54. The figure for GGAGGGACUUACCACAAGGTT against Timeless is inactive: -0.842; for “GGGAGAAGGUAAGUGCAUGTT against 4933417O08Rik” it is inactive: -0.463. The figure for CCGGUUAUGUUAAAGGCAATT against Tlk1 is inactive: 0.123; for GGAUUCCUGCUUUCUUUGCTT against Rnf26 it is inactive: 0.804; for GGAGCAGAUGGUCCUGUUATT against Eda it is inactive: -2. Turning to GCAAAGUACGCCAAGAUGGTT against Cplx1, the z-score was inactive: -0.564.

“GGUCGAGAGGUUGAAAGUATT against 6030405P05Rik”: the z-score is inactive: -1.69.

For GCAACUAUGAACAAGAAUCTT against Grm3, the z-score is inactive: 0.304. The figure for GGUUAUAGCUUCAAUAGCUTT against Bphl is inactive: 0.448. In the case of GGUAGAAACGGCUCUAUUATT against Atp6v1b2 it was inactive: -1.97; in that of GGCCCAGUUGAUCAGCUAUTT against AI428936, inactive: -0.0466. The figure for GGACUACCUACUGAGCAACTT against Disc1 is inactive: 1.28.

Consider GGUGUAAAAUGUAAAGCUGTT against Hpgd, for which the z-score is inactive: 2.28. For GGGAAGAGUCUUGUUUAAATT against Pvrl3, the z-score is inactive: 0.355.

Take “GGCUUUGCUGAAUGUCUCATT against G630049C14Rik”: the z-score is inactive: 0.469. In the case of GGCUCUCUGGAGAAUCAUGTT against Slc25a28 it was inactive: -0.0865. In the case of CCCAUAAUGGACUAAAACUTT against Tjp2 it was inactive: 1.18. GGAGACGUGUCAACAUUUUTT against Tob1: the z-score was inactive: -2.23. The figure for GGAGCUGGUCUUUUUUUUUTT against Rhobtb2 is inactive: 0.54; for “GCUCCUGAUUUUGACUAUCTT against D1Ertd622e” it is inactive: 0.806; for GCAGCAGCAGGUGUCUAUGTT against Nanos3 it is inactive: -0.485. In the case of “GGGUGAAUUCUGUCUAUGUTT against 3732409C05Rik” it was inactive: -1.2; in that of CCAAGUCUAAUGUUUACAATT against BC031853, inactive: 2.29; in that of “GGCACAUGGCAAUUCAUCATT against 1810018L02Rik”, inactive: -0.507. In the case of GGACAAAUUACAGGAUUAATT against Sod1 it was inactive: 2.07. On to “GGAAGCUGAACGAAAAUAATT against 1200020A08Rik”, for which the z-score is inactive: -1.55.

Turning to GCGUAUGUACCGAUGGCAGTT against Mocs2, the z-score was inactive: 1.88.

As for GGUCCAAAAGUUGUUUCAATT against Mgea5, the z-score is inactive: -0.111. As to GCUUUGAUGGAUUCUAAUCTT against Hdh, the z-score was inactive: 0.178.

Consider GCCUAGCUAUAUUAAACUCTT against Inpp5e, for which the z-score was inactive: 0.493. In the case of GGUCUAAUCCAGAAUCAGUTT against Ppm1f it was inactive: -0.151; in that of GGUACUGAAGGAAAUCUCUTT against Nek11, inactive: -0.686. The figure for “GGAAUUCUUAGCCAAUGCCTT against 4930500E24Rik” is inactive: 0.475. In the case of GCCCUCCUAUAUCGUAUGGTT against Fbxo12 it was inactive: 0.827; in that of “GGUGGAUCAGGAAGUGAACTT against 4832412O06Rik”, inactive: -2.51; in that of GGCUAUUCAGUAUGCCAGATT against Atm, inactive: -0.262. Consider CCGUUUCAUUUCAGGGAGGTT against Phf1, for which the z-score was inactive: 0.493. The figure for GGAAAAAUUCGAGGGACUGTT against Dscr1l1 is inactive: 1.66. In the case of GGUGGACCAUUUCAGGUUCTT against B4galt7 it was inactive: -0.656; in that of GGACCUCAUGGAGCUCCAATT against Tnnt3, inactive: -0.501.

CGACUAACAAAUUUGGUGATT against Tcfec: the z-score was inactive: -0.453. In the case of GGGUUUCUGGAAUACAUUCTT against Mfng it was inactive: 0.238.

On to “GGUCAACUCUAAGAUGCUGTT against 9930012K11Rik”, for which the z-score was inactive: -0.414.

For the sequence CCUACUCGUAUAAUCUUCUTT against Eif2c3, the z-score was inactive: 0.312. The figure for GGAAAUUGCUCAGGAGUUUTT against Anxa5 is inactive: -2.73; for CCAAUUGUGAGAAGAGUGUTT against Cog7 it is inactive: -0.349. In the case of GAUAUCACGGUCAUCUGUCTT against Pde6h it was inactive: 0.288; in that of GGAUAAAACAGGACUUCUUTT against Wdr23, inactive: -0.602; in that of GGCACCAUCGAGCUGUUAUTT against Osgep, inactive: 0.146. In the case of GGUCCUAUGCAGAUACCAATT against Gstk1 it was inactive: 0.458; in that of GGGCAAAGGAAAUGGAAUCTT against Eif5, inactive: -0.164. GGCCAGUUUUCAGGACAGUTT against Fcgr1: the z-score is inactive: 0.925.

“GCCCAUGUUUGUGAGGGUUTT against 4931440F15Rik”: the z-score was inactive: -0.44. The figure for CGAGAUUGUCAGUCUUUCCTT against Rnf110 is inactive: 1.38; for GGCCUUUCACAACAUAAAATT against BC051070 it is inactive: -0.345; for GGUCAUUUUAUCUAAUGUCTT against Ctse it is inactive: -1.09. As to “GGCUUUAGGGAGUUGCUUCTT against 4933428G09Rik”, the z-score was inactive: 0.0449. Regarding CCUAUGCGAUUAUCGCUGCTT against Wnt7a, the z-score was inactive: 0.899. In the case of “CCUUCUAAAUGACCUGUUUTT against 1810037C20Rik” it was inactive: -1.33; in that of GCGAAUCCAAGCUGGAUAGTT against AA408868, inactive: -1.9.
